In patent US11484543B2, “Compositions and methods for diagnosing and treating diseases and disorders associated with mutant KCNJ5” (The Rockefeller University, priority 2017, dated 2022):
Read-outs that look alike come from different tables or passages of the source.

Molecular target: T1, KCNJ5^G151R (Homo sapiens, UniProt P48544, G151R)
T1 construct: expressed in transfected cells
T1 sequence (P48544 1-419 G151R): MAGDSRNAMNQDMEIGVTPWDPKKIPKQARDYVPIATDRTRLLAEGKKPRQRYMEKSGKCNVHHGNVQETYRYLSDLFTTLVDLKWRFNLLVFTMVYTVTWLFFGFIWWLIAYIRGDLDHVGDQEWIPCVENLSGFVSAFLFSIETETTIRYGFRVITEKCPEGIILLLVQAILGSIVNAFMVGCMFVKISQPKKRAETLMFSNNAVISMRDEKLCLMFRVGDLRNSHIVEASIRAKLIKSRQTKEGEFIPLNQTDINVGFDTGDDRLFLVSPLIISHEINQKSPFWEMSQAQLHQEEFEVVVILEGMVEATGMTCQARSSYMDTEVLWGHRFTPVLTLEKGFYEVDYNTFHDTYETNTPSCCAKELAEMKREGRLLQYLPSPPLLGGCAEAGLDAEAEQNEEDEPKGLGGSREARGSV
Experiment: cell-based
Settings: HEK293, 72 h
Description: WT or mutant human KCNJ5 cDNAs (Choi et al., 2011, Science 331:768-772) were subcloned into the pcDNA5/FRT/TO vector using BamHI and HindIII. Single copies of WT or mutant human KCNJ5 cDNAs expressed under the control of tetracycline-inducible promoter were introduced into HEK293 cells using the Flp-in T-Rex System (Invitrogen) according to the manufacturer's instructions. Cells were grown in selective media containing 10% Tet-system approved FBS (Clontech) until induction.
Assay plates were centrifuged and incubated overnight at 37° C. 20 nL was transferred from the compound source plate to the cell assay plate using an Aquarius (Tecan) with a 384-well pin tool (V&P Scientific). The final concentration of compound for screening was 10 μM and the final DMSO concentration was 0.1%. 1 μL of tetracycline (final concentration 1 μg/mL) was added to compound containing and negative control wells by Multidrop Combi to induce expression. 1 μL of media was added to positive control wells. Assay plates were centrifuged and incubated for 72 hours at 37° C., 5% CO2. CellTiter-Glo (Promega) was used to measure cell viability in the assay wells according to the manufacturer's instructions. 10 μL/well of CellTiter-Glo reagent was added to the assay plates using a MultiDrop Combi. […] Luminescence was read on an Envision plate reader (PerkinElmer) with 0.3 second sampling time per well. Raw data (luminescence counts per second) was normalized to percent effect by the formula 100−(((sample−negative control mean)/(positive control mean−negative control mean))*100).
Data was analyzed using the programs Excel (Microsoft) and Prism (GraphPad). […]
Cellular ATP levels were measured as a proxy for cell viability, using a commercially available luciferase assay (Crouch et al., 1993, Proc. Natl. Acad. Sci. U.S.A. 109:2533-2538).
Conditions were designed to maximize reproducibility and the signal-to-background ratios (S/B) (Zhang et al., 1999, J. Biomol. Screen 4:67-73) comparing ATP level in uninduced and induced cells. […] ATP levels were measured 72 hours after induction. […]

CN1CCC[C@@H]1CCO[C@](C)(c1ccccc1)c1ccc(Cl)cc1 (racemic) [YU033748, Clemastine]
viability at 10 µM (read-out: % effect (1)): 60.8%
viability at 10 µM (read-out: % effect (2)): 44.6%
viability at 10 µM (read-out: mean % effect): 52.7%
